# Some of the results follow. The main result of the screen is listed elsewhere. These columns were measured beside it and carry no call. The list favours compounds with an active or inconclusive main result. Words in brackets tell the shape of the fitted curve; partial curves, single points and poor fits give uncertain potencies.
# Experiment: IkB Signaling
# Conditions: ABC-DLBCL IkBa-CBG/CBR dual luciferase ratio (green luciferase fused to IkBa over red control in OCI-Ly3 lymphoma cells), 4 h
# Method in brief: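 Luminescence ratio of IκBα-fused green versus native red beetle luciferase in OCI-Ly3 cells, 4 h post-doxycycline with compound; red signal alone, scaled from basal (0%) to zero light (-100%), flagged nonspecific or cytotoxic effects.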
# [1] = measured here: control luc red channel unless noted
compound,measurement,setting,value
CCC(=O)Oc1c(Sc2ccc(C)cc2)c(C)nn1-c1ccccc1,AC50,[1],"6.31 µM [falling, full curve]"
CCOC(=O)c1cccc(NC(=O)CSc2nnc(COc3ccccc3)n2CC)c1,AC50,measured here: IkB-luc green channel,"31.6 µM [falling, partial curve]"
same,AC50,measured here: control luc red channel,"10 µM [falling, partial curve]"
CC(C)(C)c1cc(/C=C(\C#N)C(N)=S)cc(C(C)(C)C)c1O,AC50,[1],"1.58 µM [falling, full curve, poor fit]"
O=C(CSc1nc(=O)n(CCN2CCOCC2)c2c1CCC2)Nc1ccc(F)cc1F,AC50,[1],"5.01 µM [rising, single point]"
Cc1c(Cl)cccc1NC(=O)CSc1nc(=O)[nH]c2c1CCC2,AC50,[1],"20 µM [falling, single point]"
Cc1c2cnn(-c3ccccc3)c(=O)c2c(C)n1CCCC(=O)Nc1cccc(F)c1,AC50,[1],"25.1 µM [falling, partial curve]"
COc1ccc(CN(Cc2ccco2)C(=O)COc2ccccc2Cl)cc1,AC50,[1],"20 µM [falling, partial curve]"
COc1cccc(-n2c(SCC(=O)Nc3ccc4c(c3)OCO4)nc3c([nH]c4ccccc43)c2=O)c1,AC50,[1],"0.00631 µM [falling, full curve, poor fit]"
COc1cc(C2c3c(-c4cc(C)ccc4O)n[nH]c3C(=O)N2Cc2ccco2)cc(OC)c1OC (stereo not drawn),AC50,[1],"39.8 µM [falling, single point]"
O=C(O)c1ccc(COc2ccc(CO)cc2Cl)cc1,AC50,[1],"12.6 µM [falling, partial curve]"
CCCc1nn2c(=O)cc(COC(=O)c3cccc(NC(=O)c4ccc(OCC)cc4)c3)nc2s1,AC50,[1],"0.251 µM [falling, full curve]"
Cc1cc(Cl)ccc1NS(=O)(=O)c1c(C(=O)N2CCCCCC2)c(C)n(C)c1C,AC50,[1],"20 µM [falling, partial curve, poor fit]"
Cc1ccc(-c2csc3ncnc(Sc4nnc(CN5CCCCCC5=O)o4)c23)cc1,AC50,[1],"6.31 µM [falling, partial curve]"
COC(=O)c1c(-c2ccc(Cl)cc2)noc1N1CCN(c2ccccc2OC)CC1,AC50,[1],"3.16 µM [falling, partial curve]"
COc1ccccc1S(=O)(=O)Cc1ccc(C(=O)N2CCN(c3cc(Cl)ccc3C)CC2)o1,AC50,[1],"15.8 µM [falling, partial curve]"
O=C(NCCc1ccccc1)c1ccc2nc(CCc3ccccc3)oc2c1,AC50,[1],"3.98 µM [rising, single point]"
COc1cc(C2CC(=O)Nc3ccc4ccccc4c32)ccc1OC(=O)C(C)C (stereo not drawn),AC50,[1],"39.8 µM [falling, partial curve]"
CC(C)(C)n1ncc2c(=O)n(Cc3c(F)cccc3Cl)cnc21,AC50,[1],"31.6 µM [falling, partial curve]"
CCCCn1c(CCCNC(=O)c2cccc(C)c2)nc2ccccc21,AC50,[1],"15.8 µM [falling, partial curve]"
Cc1nc2cc(-c3cccc(F)c3)nn2c(C)c1CCC(=O)Nc1ccccc1C(N)=O,AC50,[1],"1.26 µM [falling, partial curve]"
Cc1ccccc1-c1nnc(SCC(=O)Nc2ccc(Cl)cc2)n1N,AC50,[1],"20 µM [falling, partial curve]"
O=C1C(=C2CCCCC2)SC(=S)N1Cc1ccco1,AC50,[1],"20 µM [falling, partial curve]"
CCCCOc1ccccc1C(=O)N(Cc1sccc1C)C1CCS(=O)(=O)C1 (stereo not drawn),AC50,[1],"39.8 µM [falling, single point]"
CCOc1ccc(NC(=O)CSc2c3c(nc4ccccc24)CCCC3)cc1,AC50,[1],"5.01 µM [falling, partial curve]"
CC(C)(C)c1ccc(C(=O)N2CCCC(c3nc4c(nnn4Cc4cccc(F)c4)c(=O)[nH]3)C2)cc1 (stereo not drawn),AC50,[1],"15.8 µM [falling, partial curve]"
COc1ccc(N2CCN(Cc3nc4c(c(=O)n(C)c(=O)n4C)n3C(C)C)CC2)cc1,AC50,[1],"0.0631 µM [falling, full curve]"
CN(C)CCCn1c(-c2ccc(Cl)cc2)csc1=Nc1ccccc1,AC50,[1],"12.6 µM [falling, partial curve]"
Cc1ccc2nc(CN3CCN(S(=O)(=O)c4ccc(C(C)C)cc4)CC3)oc2c1,AC50,[1],"5.01 µM [falling, full curve]"
Cc1ccc(C(=O)CSc2nnc(COc3cccc4cccnc34)o2)cc1,AC50,[1],"25.1 µM [falling, partial curve]"
CN1CCN(C2=C(Cl)C(=O)N(c3ccc(Cl)cc3)C2=O)CC1,AC50,[1],"3.98 µM [falling, partial curve]"
Cc1cc(O)c(C(c2ccccc2)N2CCN(c3ccc(F)cc3)CC2)c(=O)n1Cc1ccco1 (stereo not drawn),AC50,[1],"6.31 µM [falling, partial curve, poor fit]"
Cc1cccc(CNc2ncnc3ccc(-c4c(C)noc4C)cc23)c1,AC50,[1],"316 nM [rising, full curve, poor fit] [measured here: IkB-luc green channel]"
Cc1ccc(-n2c(CCC(=O)O)ccc2-c2cccs2)cc1Cl,AC50,[1],"25.1 µM [falling, single point]"
CCc1ccc(C(=O)CC2(O)C(=O)N(Cc3ccc(C)cc3)c3ccccc32)cc1 (stereo not drawn),AC50,[1],"15.8 µM [falling, partial curve]"
CC(C)c1nc2ccc(C(=O)NCc3ccccc3Br)cc2o1,AC50,[1],"39.8 µM [falling, single point]"
CC(C)OCCCN1C(=O)c2[nH]nc(-c3ccccc3O)c2C1c1ccccc1F (stereo not drawn),AC50,[1],"39.8 µM [falling, single point]"
CCOc1ccccc1N1CC(c2nc3ccccc3n2CCCOc2ccc(OC)cc2)CC1=O (stereo not drawn),AC50,[1],"15.8 µM [falling, partial curve]"
COc1ccc2nc(NC(=O)CN(c3ccc(C)cc3)S(=O)(=O)c3c(C)nn(C)c3C)sc2c1,AC50,[1],"10 µM [falling, partial curve]"
O=C(NCC1CCN(Cc2cccc(Cl)c2)CC1)Nc1ccc(F)c(Cl)c1,AC50,[1],"15.8 µM [falling, partial curve]"
O=C(COc1ccccc1F)Nc1ccc2nc(SCC(=O)N3CCOCC3)sc2c1,AC50,[1],"25.1 µM [falling, single point]"
O=C(CN1CCOCC1)Nc1nc(-c2ccc3c(c2)CCN3S(=O)(=O)c2ccccc2)cs1,AC50,[1],"31.6 µM [falling, partial curve]"
Cc1ccc(S(=O)(=O)Nc2cc(Cl)c3oc4c(c3c2)CCCC4)cc1,AC50,[1],"31.6 µM [falling, partial curve, poor fit]"
CCOc1ccc(CNC(=O)CSc2c3c(nc4cc(Cl)ccc24)CCCC3)cc1,AC50,[1],"39.8 µM [falling, single point]"
COc1ccc(C(=O)NC(c2ccccc2Cl)c2cc(Cl)c3cccnc3c2O)cc1 (stereo not drawn),AC50,[1],"31.6 µM [falling, single point]"
Cc1c(C)n(Cc2ccccc2)c2ccc(C(=O)N3CCN(c4ccccc4)CC3)cc12,AC50,[1],"1.26 µM [rising, full curve, poor fit]"
CCOC(=O)c1oc2c(c1C)-c1nn(Cc3cccc(Cl)c3)cc1CC2,AC50,[1],"5.01 µM [falling, partial curve]"
CC(C)Oc1ccc(C(=O)N(Cc2ccc(N(C)C)cc2)Cc2ccco2)cc1,AC50,[1],"31.6 µM [falling, single point]"
CCOC(=O)c1c(C)oc2nc(C)nc(NCCc3ccc(C)cc3)c12,AC50,[1],"39.8 µM [falling, single point]"
COc1cc(NC(=O)CN2CCCN(Cc3cccc(F)c3)S2(=O)=O)cc(OC)c1,AC50,[1],"15.8 µM [falling, partial curve, poor fit]"
Cc1cccc(NC(=O)Cn2c(=O)n(Cc3ccco3)c(=N)c3c4c(sc32)COC(C)(C)C4)c1,AC50,[1],"20 µM [falling, partial curve]"
CCCc1cc(N2CCN(c3ccccc3F)CC2)n2cnnc2n1,AC50,[1],"15.8 µM [falling, partial curve]"
C=CCNc1ncnc2c1cnn2-c1ccc(Cl)cc1,AC50,[1],"12.6 µM [falling, partial curve]"
CC1=C(C(=O)N2CCCCC2)C(c2ccc(Cl)cc2)n2c(nc3ccccc32)N1 (stereo not drawn),AC50,[1],"25.1 µM [falling, single point]"
Cc1ccc(CN2C(=O)c3ccccc3Sc3ccc(C(=O)N4CCOCC4)cc32)cc1,AC50,[1],"31.6 µM [falling, single point]"
CCOc1ccc(NC(=O)CSc2oc(-c3ccco3)nc2S(=O)(=O)c2ccccc2)cc1,AC50,[1],"12.6 µM [falling, partial curve]"
Cc1ccc(NC(=O)c2oc3ccc(S(=O)(=O)N(C)C4CCCCC4)cc3c2C)c(C)c1,AC50,[1],"7.94 µM [falling, full curve]"
COc1ccc(-c2nc(C)c(CCNC(=O)c3ccc(C(F)(F)F)cc3)s2)cc1OC,AC50,[1],"2 µM [rising, partial curve]"
O=C(NCCc1ccc(Cl)cc1)c1ccc(Nc2nc3ccccc3n3nnnc23)cc1,AC50,[1],"7.94 µM [falling, full curve]"
O=C(Nc1nc2ccccc2n1CCOc1ccccc1)c1ccco1,AC50,[1],"15.8 µM [rising, partial curve] [measured here: IkB-luc green channel]"
Cc1cccc(NC(=O)C(=O)NCCCN2CCOCC2)c1,AC50,[1],"12.6 µM [falling, partial curve, poor fit]"
COc1ccc(NC(=O)c2nc(SCc3ccc(F)cc3)ncc2Cl)cc1,AC50,[1],"15.8 µM [falling, partial curve]"
Cc1ccccc1Nc1c(-c2ccc(N3CCOCC3)cc2)nc2cccc(C)n12,AC50,[1],"25.1 µM [falling, partial curve]"

# Laid out differently: results already given
compound	measurement	setting	value
CC1=C(C(=O)N2CCCCC2)C(c2ccc(Cl)cc2)n2c(nc3ccccc32)N1 (stereo not drawn)	AC50	[1]	25.1 µM [falling, single point]
Cc1ccc(CN2C(=O)c3ccccc3Sc3ccc(C(=O)N4CCOCC4)cc32)cc1	AC50	[1]	31.6 µM [falling, single point]
CCOc1ccc(NC(=O)CSc2oc(-c3ccco3)nc2S(=O)(=O)c2ccccc2)cc1	AC50	[1]	12.6 µM [falling, partial curve]
Cc1ccc(NC(=O)c2oc3ccc(S(=O)(=O)N(C)C4CCCCC4)cc3c2C)c(C)c1	AC50	[1]	7.94 µM [falling, full curve]

# Source: PubChem BioAssay AID445 (National Center for Advancing Translational Sciences (NCATS), 2006)
